Experimental data taken from patent US20100311660A1.
These are yes or no findings as the source states them, for the method shown. Some results given as binding are weak or reduced against the parent protein; the word gives no strength.

Sequences of proteins named here, by UniProt entry; tags and fusion partners are left off. Residues count along the entry.
UniProt P16860, residues 103-134: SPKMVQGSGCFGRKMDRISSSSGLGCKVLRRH

Molecular target: T1, human NPR-C (human) (UniProt P17342)
T1 sequence (looked up): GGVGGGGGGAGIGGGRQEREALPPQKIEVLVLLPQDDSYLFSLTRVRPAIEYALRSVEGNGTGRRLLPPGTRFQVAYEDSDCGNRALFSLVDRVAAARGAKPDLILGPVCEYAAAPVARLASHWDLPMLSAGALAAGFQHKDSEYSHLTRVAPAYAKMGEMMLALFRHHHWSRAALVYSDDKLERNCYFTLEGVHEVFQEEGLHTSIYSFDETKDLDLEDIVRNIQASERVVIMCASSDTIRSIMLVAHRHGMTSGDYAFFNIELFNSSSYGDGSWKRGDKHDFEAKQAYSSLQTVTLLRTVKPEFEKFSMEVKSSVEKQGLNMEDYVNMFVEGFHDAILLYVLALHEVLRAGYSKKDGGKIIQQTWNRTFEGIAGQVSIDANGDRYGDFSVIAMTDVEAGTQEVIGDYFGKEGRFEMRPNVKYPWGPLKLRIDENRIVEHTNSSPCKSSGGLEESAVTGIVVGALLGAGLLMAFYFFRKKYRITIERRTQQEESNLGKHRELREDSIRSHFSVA
Experiment: receptor binding assay, methods similar to Fan et al. 2005

Which binding does the source give for “human BNP (from UniProt P16860 103-134) (peptide)” here?
Its binding is “binds”.
